According to paper PMC7819943, “Rice protein-binding microarrays: a tool to detect cis-acting elements near promoter regions in rice”:
The list shows a part of the results.

The chains behind the UniProt entries cited, without tags or fusion partners.
UniProt Q0JBA9, entry or part of it: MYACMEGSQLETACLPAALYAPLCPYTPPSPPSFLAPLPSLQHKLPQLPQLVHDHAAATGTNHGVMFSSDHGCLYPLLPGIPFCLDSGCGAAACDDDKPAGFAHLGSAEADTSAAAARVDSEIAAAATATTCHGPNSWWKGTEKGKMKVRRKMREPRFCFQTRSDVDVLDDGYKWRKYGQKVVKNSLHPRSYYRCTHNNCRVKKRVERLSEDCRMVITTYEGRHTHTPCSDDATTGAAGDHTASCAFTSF

Biological target: OsWRKY34 (Oryza sativa, UniProt Q0JBA9 1-250)
Assay: protein-binding microarray (RPBM); PBS, 2% BSA, 51.3 ng/ul salmon testes DNA, 50 uM zinc acetate, 200 nM TF, 25 C, 1 h; high values mean tight binding
Details: protein: recombinant; tags: N-terminal polyhistidine and DsRed monomer fusion (pET32a); label: CyDye5-dUTP incorporated in the synthesized complementary strand; 3' TTTTT single-stranded linker to array surface; dsDNA, one strand shown
Method in brief: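 Using Ni–NTA, transcription factors fused N-terminally to polyhistidine and DsRed were purified after expression in E. coli BL21-CodonPlus. These were incubated at 200 nM with a blocked, double-stranded custom Agilent array for 1 h at 25 °C in a buffer containing 50 µM zinc acetate, and the array was washed. The binding signal is per-feature fluorescence intensity (arbitrary units) on an Axon 4000B scanner.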

Sequence	binding signal
TTGGGTTGGGAATGGCTTCGTAATAATAGATGAGATTTTTCGGAGTCACCTAGTGCAG	8940 fluorescence intensity (a.u.)
GTTTACATACCCGTTTCAAATTTGAATTTGAATTCAAATACGGAGTCACCTAGTGCAG	9410 fluorescence intensity (a.u.)
GAACAGTACACTCTCTCTTCATTGATCTTGTTGACTGGTGCGGAGTCACCTAGTGCAG	9710 fluorescence intensity (a.u.)
ATGTCACCTGATCACCTCACCTCACCTCAGAGCATTGGCCCGGAGTCACCTAGTGCAG	8260 fluorescence intensity (a.u.)
CTCTCACACCGTGCCATATCCCGAACATCCCTTGATCGAACGGAGTCACCTAGTGCAG	9530 fluorescence intensity (a.u.)
TCTCCATTTTTACCTTTGCATGGCTAATAATATTTCCAACCGGAGTCACCTAGTGCAG	10800 fluorescence intensity (a.u.)
GGGACCCGATTTGGGCGGTATATACCTTACTTCACGTGCACGGAGTCACCTAGTGCAG	8920 fluorescence intensity (a.u.)
GAGACTACATGTTAGTATATCATGTTTCTTGCTCTCATTCCGGAGTCACCTAGTGCAG	8240 fluorescence intensity (a.u.)
CTTACTTTGACCGCAATTTTGTACATTTTAATGATTATATCGGAGTCACCTAGTGCAG	8290 fluorescence intensity (a.u.)
TTTTTTTCCCTGTTACCGTTTTTCCAAAATAATGTGTTCCCGGAGTCACCTAGTGCAG	8460 fluorescence intensity (a.u.)
TGGAAATCTGTGGTTGTGGAGGTGGATTTTTGCTTCTGCTCGGAGTCACCTAGTGCAG	8310 fluorescence intensity (a.u.)
CTTTCATTTACACACGACTTTTCAGTCACATCGTCTCCAACGGAGTCACCTAGTGCAG	8940 fluorescence intensity (a.u.)
CGGCCGCGCCGCCTATGTAGGCCTCTGGGTCCATTCACACCGGAGTCACCTAGTGCAG	9080 fluorescence intensity (a.u.)
CCCCGCTGCTTGTCACGCTCTCGTTGGTCGATCACTCCATCGGAGTCACCTAGTGCAG	10700 fluorescence intensity (a.u.)
TGTACGCGCGCGTTCATCTCCTTATATCTTCAAGCTGTCACGGAGTCACCTAGTGCAG	9140 fluorescence intensity (a.u.)
ACCGCTACGTTACCTTCTCCTCTCGTGCTCTTTCTCCGCCCGGAGTCACCTAGTGCAG	10200 fluorescence intensity (a.u.)
ATTTATGTGCATATGATACTTTTTTTTACTTGTTCATCATCGGAGTCACCTAGTGCAG	8700 fluorescence intensity (a.u.)
CAGTTCAATCAAACGGTCATTCCCGTGTTTTCCTGCGTTTCGGAGTCACCTAGTGCAG	11200 fluorescence intensity (a.u.)
GGGGCAAGGAAGGAAGGGGAGGGGAGGGGTTGGGGCGATGCGGAGTCACCTAGTGCAG	25900 fluorescence intensity (a.u.)
TTCAGTTAAAAGTGTTGTTGATGTTTTCCTTTCTGAAAGACGGAGTCACCTAGTGCAG	8540 fluorescence intensity (a.u.)
TAGTCGCCCACGGCCCCACGCGCCCACACACATTACGCAGCGGAGTCACCTAGTGCAG	8550 fluorescence intensity (a.u.)

3 consecutive records already listed:
Sequence	binding signal
GAACAGTACACTCTCTCTTCATTGATCTTGTTGACTGGTGCGGAGTCACCTAGTGCAG	9710 fluorescence intensity (a.u.)
ATGTCACCTGATCACCTCACCTCACCTCAGAGCATTGGCCCGGAGTCACCTAGTGCAG	8260 fluorescence intensity (a.u.)
CTCTCACACCGTGCCATATCCCGAACATCCCTTGATCGAACGGAGTCACCTAGTGCAG	9530 fluorescence intensity (a.u.)

Next part.

Sequence	binding signal
CTCACCACTCAGCATAATCTGCAACAGCTTTATGAGTTGTCGGAGTCACCTAGTGCAG	8320 fluorescence intensity (a.u.)
ATTTTTTTTCTCACTTTCATCACTTAGTTTTGGCTTTAGACGGAGTCACCTAGTGCAG	8810 fluorescence intensity (a.u.)
AAATTTGTACTGTGCAAACCAGCTTTGTCTATCTTCCTCACGGAGTCACCTAGTGCAG	9890 fluorescence intensity (a.u.)
CCACTGTCAGTCTCTTCCGCCTCCTTTTTATTTCCTCTGTCGGAGTCACCTAGTGCAG	10800 fluorescence intensity (a.u.)
AAACAATTATCTAAAAACCTCACTATTAATAGAGAGATTCCGGAGTCACCTAGTGCAG	38700 fluorescence intensity (a.u.)
TCAAATTGGTACAACAGCGACCTTCACAGAACTTGGGAAACGGAGTCACCTAGTGCAG	9150 fluorescence intensity (a.u.)
ACTAAAGTGTAGGTTTCGTCTCTGCTCTTCTGCTTTTGTACGGAGTCACCTAGTGCAG	8790 fluorescence intensity (a.u.)
CTCCGGTTCGCTCCCACGCCCGCCACCGCCACCACCCGCCCGGAGTCACCTAGTGCAG	10100 fluorescence intensity (a.u.)
TACCACAGTGCTGAACACTCTCTTCCTATTACCTCTCTCACGGAGTCACCTAGTGCAG	8370 fluorescence intensity (a.u.)
ATGCTTATTTTATTTATGAATTGTATAGGTTCTCTTGGGCCGGAGTCACCTAGTGCAG	8250 fluorescence intensity (a.u.)
GTACTATACTTAGCAATTGTATGCTCTACTCTTCACTTCTCGGAGTCACCTAGTGCAG	12900 fluorescence intensity (a.u.)
AAAAAAAAGAGCGATTCCTTTGCGCGCCTCGCGATTCGTCCGGAGTCACCTAGTGCAG	10300 fluorescence intensity (a.u.)
AAATATTTTTTTCACCCGTTATAACACACGAGTTTTTTCGCGGAGTCACCTAGTGCAG	8450 fluorescence intensity (a.u.)
ACCTCTCATACAATACCCTATATAATACCATATGTCCTATCGGAGTCACCTAGTGCAG	8170 fluorescence intensity (a.u.)
ATATATATGTTCGATCACTCCCACACAATTCTCCAAACCACGGAGTCACCTAGTGCAG	8280 fluorescence intensity (a.u.)
CTTTTAATTACTCCGATTTCGTAGCGCATATCGACTCTCCCGGAGTCACCTAGTGCAG	8510 fluorescence intensity (a.u.)
TCTCTCTCCTTCCTGTGTGGCAGTGGGTCCCATTTCTGACCGGAGTCACCTAGTGCAG	8820 fluorescence intensity (a.u.)
GGCTTAACCTGTGCGTGTGTGTGGTCTATTTAACCAATGTCGGAGTCACCTAGTGCAG	8700 fluorescence intensity (a.u.)
TGGGCTTTTTTCTTTTGTTTGAATGGAGGGAGTACGCAGTCGGAGTCACCTAGTGCAG	11000 fluorescence intensity (a.u.)
CTCCCTGTCTGTGCACGGGCCCTACACCGTTGCAACACGCCGGAGTCACCTAGTGCAG	11300 fluorescence intensity (a.u.)
AGTCAAGCTCCTCTTCTATTATGTCTTCGTCAATACTATTCGGAGTCACCTAGTGCAG	9750 fluorescence intensity (a.u.)
